Test results taken from patent US20220204643A1.
Read-outs that look alike come from different tables or passages of the source. Results are given in words; binding and its absence hold for the method and conditions named. Some entries that bind do so weakly or less than the wild type.

Experiments:
[1] = biological target: T1, G protein-coupled receptor 83, transcript variant 1 (human) (UniProt Q9NYM4); experiment: protein array
T1 sequence: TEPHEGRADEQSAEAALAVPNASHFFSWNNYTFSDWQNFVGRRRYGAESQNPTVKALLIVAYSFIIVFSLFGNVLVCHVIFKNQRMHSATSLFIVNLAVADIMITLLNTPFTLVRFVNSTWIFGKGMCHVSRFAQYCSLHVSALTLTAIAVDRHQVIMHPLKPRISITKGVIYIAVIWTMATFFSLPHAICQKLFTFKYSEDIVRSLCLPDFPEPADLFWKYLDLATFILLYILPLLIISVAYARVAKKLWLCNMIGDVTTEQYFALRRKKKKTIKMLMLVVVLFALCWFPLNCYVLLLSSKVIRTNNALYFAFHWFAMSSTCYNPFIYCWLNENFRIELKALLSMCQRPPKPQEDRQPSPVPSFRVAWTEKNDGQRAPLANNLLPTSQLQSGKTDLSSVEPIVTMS

[2] = biological target: T1, G protein-coupled receptor 83, transcript variant 1 (human)
[3] = biological target: T2, hematopoietic cell-specific Lyn substrate 1, transcript variant 1 (human) (UniProt P14317); experiment: protein array
T2 sequence: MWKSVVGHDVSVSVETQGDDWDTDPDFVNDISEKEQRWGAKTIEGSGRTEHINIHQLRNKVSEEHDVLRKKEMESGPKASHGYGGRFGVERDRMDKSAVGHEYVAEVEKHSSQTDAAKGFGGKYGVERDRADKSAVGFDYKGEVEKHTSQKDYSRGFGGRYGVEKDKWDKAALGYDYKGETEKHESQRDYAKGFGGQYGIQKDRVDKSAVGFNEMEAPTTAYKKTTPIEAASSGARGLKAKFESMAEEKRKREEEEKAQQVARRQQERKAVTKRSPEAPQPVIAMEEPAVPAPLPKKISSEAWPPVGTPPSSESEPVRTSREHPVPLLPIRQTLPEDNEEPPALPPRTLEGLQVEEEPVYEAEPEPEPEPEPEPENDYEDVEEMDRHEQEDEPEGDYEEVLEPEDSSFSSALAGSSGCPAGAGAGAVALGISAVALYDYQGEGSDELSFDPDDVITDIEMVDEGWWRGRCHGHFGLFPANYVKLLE

[4] = biological target: T2, hematopoietic cell-specific Lyn substrate 1, transcript variant 1 (human)

B1: THNS1013 (antibody, V domains shown)
VH: EVQLVQSGAEVKKPGESLKISCQGSGYRFNAYWIGWVRQIPGKGLEWMGIIYPGDSDTKYSPSFQGQVTISADKSISTAYLQWNGLEASDTAVYYCARSTSSSTSDFHYMDVWGKGTTVTISS
VL: EIVLTQSPDTLSLSPGERATLSCRASQSVSSSLAWYQQKPGQAPRLLIYYASNRATDIPARFSGSGSGTDFTLTISSLEPEDFALYYCQHRITWPPLITFGQGTRLEIKR
[1]
  binding: binds
[2]
  binding: binds

B2: TKIC1005 (antibody, V domains shown)
VH: EVQLVESGGGLVKPGGSLRLSCAVSGFTFRSYSMNWVRQAPGKGLEWVSSISSSSRYVDYADSVKGRFTISRDNAKNLLYLQMNFLRVEDTAVYYCARTETKWEDRGLWDYWGQGTLVTVSS
VL: EIVMTQSPATLSVSPGETATLSCRASQSVSSNLAWYQQKPGQAPRLLMYGASTRATSVPARFSGSASGTDFTLTISSLQSEDFALYYCQQYNNWPQYTFGQGTKLEIKR
[3]
  binding: binds
[4]
  binding: binds
